Results published in patent US20160340658A1, “PTERIS VITTATA PHYTASE NUCLEOTIDE AND AMINO ACID SEQUENCES AND METHODS OF USE” (UNIVERSITY OF FLORIDA RESEARCH FOUNDATION, INC., priority 2014, published 2016).

Tested on: Pteris vittata
Type: in vivo

SMILES | PV biomass compared to the Pi treatment (0.6 mM, 40 d) | PV growth (fresh weight) (in vivo) [mg]
O=P(O)(O)OC1C(OP(=O)(O)O)C(OP(=O)(O)O)C(OP(=O)(O)O)C(OP(=O)(O)O)C1OP(=O)(O)O (centres unmarked) [P6, myo-inositol hexaphosphoric acid dodecasodium salt] | equivalent | 
O=P(O)(O)O [Pi, phosphate] |  | 115

Where a name gives a salt, the structure may show the parent alone.
